# Measured values reported in US20140113904A1, “TREATMENT OF CANCER WITH TOR KINASE INHIBITORS” (SIGNAL PHARMACEUTICALS, LLC, priority 2012, published 2014).
# “Also recorded” adds a separate entry of the source. At least one compound was matched to its structure with a doubt left.
# Legend:
# Type in all cases: in vivo, SCID mice
# PC3 tumors [1] = assay: Antitumor activity of Compound 2 in PC3 human prostate cancer xenograft model; conditions: rapamycin 4 mg/kg Q3D IP, Day 30
# PC3 tumors [2] = assay: Antitumor activity of Compound 1 in PC3 human prostate cancer xenograft model; conditions: rapamycin 4 mg/kg Q3D IP, end of dosing period
# Description: The BID dose groups were dosed with a 10-hour separation between the morning and evening doses. […] At the end of each study, plasma and/or tumor samples were collected.
# PC3 cell line was obtained from American Tissue Culture Collection (ATCC) (Gaithersberg, Md.) and grown in growth medium containing Ham's F12K medium with 2 mM L-glutamine adjusted to contain 1.5 g/L sodium bicarbonate and 10% of fetal bovine serum. The cells were detached from tissue culture flasks using trypsin-EDTA. After centrifugation, the cell pellets were suspended in phosphate buffered saline (PBS) and counted using a hemocytometer. […]
# Following inoculation, the tumors were allowed to grow to about 100 mm^3 or 500 mm^3 prior to randomization. […] The tumor of each animal was measured and animals with tumors ranging between 100 and 200 mm^3 were included in the study. […]
# Tumor volumes were determined prior to the initiation of treatment and were considered as the starting volumes. Thereafter, tumors were measured twice a week for the duration of the study. The long and short axes of each tumor were measured using a digital caliper in millimeters. The tumor volumes were calculated using the formula: width^2× length/2. […]
# PC3 tumors [3] = assay: Apoptosis TUNEL assay in PC3 tumors (Compound 1, rapamycin); conditions: rapamycin 4 mg/kg IP Q3D for 6 days, 2 hours after last dose
# Description: Two hours after the last dose of either vehicle, Compound 1, or rapamycin, the mice were euthanized and the tumors were dissected. The tumors were snap frozen in liquid nitrogen and processed for immunohistochemistry (IHC) and TUNEL.
# To detect the apoptotic cells, fluorescence in situ cell death detection kit (Roche Biosciences) was used. Five to ten micron thick cryostat sections were fixed in 4% paraformaldehyde for 15 minutes at room temperature, washed, permeabilized with 0.3% triton X-100 and 0.1% sodium citrate in PBS for 10 minutes. Sections were then washed in PBS and incubated with a labeling solution containing TdT enzyme for 1 hour at 37° C. in the dark. The sections were washed in PBS, counterstained with Hoechst dye (0.4 μg/mL) at room temperature for 10 minutes and mounted in Prolong Gold antifade reagent.
# The tissues sections processed for apoptosis or immunostained for proliferating cells (Ki-67) or blood vessels were quantitated using Metamorph software. Using 20× objective, 5 different fields from each section, 2 to 4 sections from each tumor, and 3 to 4 tumors from each treatment group or control were used for quantitation. The area of interest was expressed as the percent threshold area of the total area.
smiles,measurement,setting,value
"CO[C@H]1C[C@@H]2CC[C@@H](C)[C@@](O)(O2)C(=O)C(=O)N2CCCC[C@H]2C(=O)O[C@H]([C@H](C)C[C@@H]2CC[C@@H](O)[C@H](OC)C2)CC(=O)[C@H](C)/C=C(\C)[C@@H](O)[C@@H](OC)C(=O)[C@H](C)C[C@H](C)/C=C/C=C/C=C/1C [rapamycin, reference compound]",tumor growth versus vehicle,PC3 tumors [1],significantly (p<0.001) smaller tumors; also recorded: significantly inhibited tumors
same,tumor growth versus vehicle control,PC3 tumors [2],significantly (p<0.001) smaller tumors; also recorded: significantly inhibited tumors; also recorded: Significant (p<0.001) inhibition of tumor growth; also recorded: tumor growth stasis
same,TUNEL-positive cells compared with the vehicle control,PC3 tumors [3],about a two fold increase
